These are yes or no findings as the source states them, for the method shown. For part of these data: In cells and extracts the contact can be indirect. Some results given as binding are weak or reduced against the parent protein; the word gives no strength. Sequences can lack the tags named with a protein.
Tests used:
[1] = target: T1, GAL4 DNA-binding domain-fused Drosophila melanogaster Piwi (pDBD-dPiwi) (Drosophila melanogaster), Q9VKM1; assay: two-hybrid; insect two-hybrid (I2H) in BmN4 cells: GAL4 DBD bait, p65 AD prey, 4xUAS-TATA-Luc reporter, luciferase at 72 h post-transfection, relative to the pUC18 control prey; also in BmN4-SID1 cells 72 h after dsRNA against HP1a, HP1b, Ago3, Siwi, putative piRNA-related genes or GFP (control); settings: remark: other sources report otherwise
T1 chain: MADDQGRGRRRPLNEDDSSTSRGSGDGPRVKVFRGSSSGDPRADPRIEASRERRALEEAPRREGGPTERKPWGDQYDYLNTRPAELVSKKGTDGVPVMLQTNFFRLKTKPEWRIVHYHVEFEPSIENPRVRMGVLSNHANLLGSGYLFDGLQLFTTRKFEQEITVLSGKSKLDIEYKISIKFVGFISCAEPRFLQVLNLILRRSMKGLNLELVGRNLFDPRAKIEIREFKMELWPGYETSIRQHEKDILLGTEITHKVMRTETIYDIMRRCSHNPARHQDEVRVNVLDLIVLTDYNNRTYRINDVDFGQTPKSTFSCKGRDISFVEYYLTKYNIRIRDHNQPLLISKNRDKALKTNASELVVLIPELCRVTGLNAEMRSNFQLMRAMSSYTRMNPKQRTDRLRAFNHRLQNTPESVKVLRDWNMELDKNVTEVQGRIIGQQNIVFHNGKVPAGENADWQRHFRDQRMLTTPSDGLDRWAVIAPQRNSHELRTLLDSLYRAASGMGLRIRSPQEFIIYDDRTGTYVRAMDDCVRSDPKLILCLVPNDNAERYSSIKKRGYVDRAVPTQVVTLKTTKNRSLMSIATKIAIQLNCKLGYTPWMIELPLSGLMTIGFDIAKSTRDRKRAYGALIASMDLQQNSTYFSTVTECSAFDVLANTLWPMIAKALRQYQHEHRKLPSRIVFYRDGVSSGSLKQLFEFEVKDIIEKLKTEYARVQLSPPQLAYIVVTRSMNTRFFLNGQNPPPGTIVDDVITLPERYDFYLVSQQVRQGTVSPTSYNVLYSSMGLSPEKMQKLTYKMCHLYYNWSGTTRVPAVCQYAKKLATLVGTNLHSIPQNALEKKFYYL

[2] = target: T2, Drosophila melanogaster Piwi, BiFC fusion (Drosophila melanogaster), Q9VKM1; assay: split reporter; BiFC in BmN4 cells; 100 ng of each expression plasmid (fusions in pnVW or pcCW) co-transfected; Venus fluorescence by microscopy; settings: remark: other sources report otherwise
T2 chain: T1 chain

[3] = target: T3, Bombyx mori Siwi fused to the split Venus fragment of pnVW (pNV-Siwi) (Bombyx mori) (UniProt A8D8P8); assay: split reporter; BiFC in BmN4-SID1 cells 72 h after introduction of dsHP1a, dsHP1b or dsLuc (control); DsRed-VLG as marker of nuage
T3 sequence: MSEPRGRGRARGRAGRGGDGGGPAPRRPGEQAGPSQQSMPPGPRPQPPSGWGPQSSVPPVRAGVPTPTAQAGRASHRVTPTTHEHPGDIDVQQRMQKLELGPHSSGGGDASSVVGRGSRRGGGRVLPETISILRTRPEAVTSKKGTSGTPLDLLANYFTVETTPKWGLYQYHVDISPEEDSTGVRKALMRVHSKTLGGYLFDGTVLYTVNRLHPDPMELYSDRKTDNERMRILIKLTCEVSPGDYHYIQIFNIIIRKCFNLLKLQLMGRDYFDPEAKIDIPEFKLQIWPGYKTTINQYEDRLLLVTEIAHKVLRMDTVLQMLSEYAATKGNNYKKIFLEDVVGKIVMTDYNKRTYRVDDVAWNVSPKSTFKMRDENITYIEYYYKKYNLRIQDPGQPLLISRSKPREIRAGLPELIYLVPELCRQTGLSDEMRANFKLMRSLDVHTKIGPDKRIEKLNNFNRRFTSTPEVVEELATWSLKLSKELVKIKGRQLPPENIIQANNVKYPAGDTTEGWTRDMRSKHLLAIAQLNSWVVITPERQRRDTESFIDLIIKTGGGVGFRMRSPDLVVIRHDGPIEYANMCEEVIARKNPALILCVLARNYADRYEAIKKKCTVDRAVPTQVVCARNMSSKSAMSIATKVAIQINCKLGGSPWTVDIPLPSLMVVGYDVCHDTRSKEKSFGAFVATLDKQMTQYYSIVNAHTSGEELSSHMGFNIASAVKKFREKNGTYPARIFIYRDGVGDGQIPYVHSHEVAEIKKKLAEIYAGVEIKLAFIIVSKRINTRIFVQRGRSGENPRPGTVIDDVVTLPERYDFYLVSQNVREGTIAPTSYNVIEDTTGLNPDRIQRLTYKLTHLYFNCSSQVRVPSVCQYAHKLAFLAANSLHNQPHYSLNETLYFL

B1: p65 activation domain-fused Drosophila melanogaster HP1a, P05205 1-206 (protein)
chain: MGKKIDNPESSAKVSDAEEEEEEYAVEKIIDRRVRKGKVEYYLKWKGYPETENTWEPENNLDCQDLIQQYEASRKDEEKSAASKKDRPSSSAKAKETQGRASSSTSTASKRKSEEPTAPSGNKSKRTTDAEQDTIPVSGSTGFDRGLEAEKILGASDNNGRLTFLIQFKGVDQAEMVPSSVANEKIPRMVIHFYEERLSWYSDNED
binding [1]: binds

B2: Drosophila melanogaster HP1a, BiFC fusion, P05205 1-206 (protein)
chain: B1 chain
binding [2]: binds

B3: Bombyx mori Ago3 fused to the split Cerulean fragment of pcCW (pCC-Ago3) (protein, UniProt A9ZSZ2 1-926)
chain: MADPGKGRGRSLALLQALKKSQMMDSPSQSESQSPESTPEQSTAPSTIASATPSTSGVSIGGRGRAAALMLAKMQQKPGSTTPAIFVPPSSTSAPTAGTGRGFKLLQNLQASQKASSQIASSQVTSSAQSDIKDLTEKMSETSVSAQASSVAKNKYFREVKDTPPVVKKGETGVPIEVTCNYIYLNFKENIVFEYEVKFEPDQDYKHLRFKLLNEHIEHFKEKTFDGTTLYVPHELPDAVRNLVSTNPYDQSKVNVSIIFRRTRRLSEMIHIYNVMFKCIMKDLKLIRFGRQHYNEHAAIQIPQHKLEVWPGYVTAVDEYEGGLMLTLDSTHRVLRTQTVLSLIKEVVQTEGANWKRKMTDILIGASVMTTYNKKLFRVDTIDDKMSPRSTFEKTEKGETVQISFIDYYKKNYGIEIMDWDQPLLISRDTKRMPGSDTPTDFMICLIPELCQLTGLTDDQRSNFRLMKDVATYTRITPNQRHAAFKKYIESVMKNETAKSRLAGWGLSIAPETVNLTARTLPPETLYFGDNVRVPGKPNAEWNSEVTKHSVMQAVDIMRWVLLFTQRDKQVAMDFLSTLKRNCRPMGIMVSDAELVPLANDRTDTYVLALKKCITSSVQLVVAICSTKRDDRYAAIKKVCCADNPVPSQVINARTLMNTNKIRSITQKILLQLNCKLGGTLWSISIPFKSAMIVGIDSYHDPSRRNRSVCSFVASYNQSMTLWYSKVIFQEKGQEIVDGLKCCLVDALTHYLRSNGQLPDRIIIYRDGVGDGQLKLLQQYEIPQMKICFTILGSNYQPTLTYVVVQKRINTRIFLKSRDGYDNPNPGTVVDHCITRRDWYDFLIVSQKVTQGTVTPTHYVVVYDDSGITPDQCQRLTYKMCHLYYNWPGTVRVPAPCQYAHKLSYLVGQCVHAQPSDVLVDKLFFL
binding [3]: binds

Reference: PMC3956929
